Results published in paper PMC8629390.
No constants are given. Whether binding was seen depends on the method and setting. In cells and extracts the contact can be indirect. Some binding calls cover weakened binding; strength is not graded here. For some assays here: Sequences can lack the tags named with a protein. Values belong to the molecule of their own block, whether it stands above or below them.

Protein sequences, listed by entry. Tags and fused reporters are not part of them.
UniProt Q8IV32: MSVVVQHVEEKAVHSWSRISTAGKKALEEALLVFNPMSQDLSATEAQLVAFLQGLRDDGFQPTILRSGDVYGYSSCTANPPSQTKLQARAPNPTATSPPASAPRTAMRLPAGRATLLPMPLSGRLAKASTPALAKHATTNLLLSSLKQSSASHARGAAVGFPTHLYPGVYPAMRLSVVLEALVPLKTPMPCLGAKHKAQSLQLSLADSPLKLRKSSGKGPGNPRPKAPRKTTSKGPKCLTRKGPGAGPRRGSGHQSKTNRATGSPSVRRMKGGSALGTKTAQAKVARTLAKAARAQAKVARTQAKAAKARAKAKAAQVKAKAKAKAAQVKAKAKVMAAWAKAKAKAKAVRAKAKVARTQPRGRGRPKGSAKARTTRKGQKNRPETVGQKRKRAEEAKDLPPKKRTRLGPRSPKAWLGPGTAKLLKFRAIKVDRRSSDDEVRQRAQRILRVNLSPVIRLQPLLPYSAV
UniProt P46100: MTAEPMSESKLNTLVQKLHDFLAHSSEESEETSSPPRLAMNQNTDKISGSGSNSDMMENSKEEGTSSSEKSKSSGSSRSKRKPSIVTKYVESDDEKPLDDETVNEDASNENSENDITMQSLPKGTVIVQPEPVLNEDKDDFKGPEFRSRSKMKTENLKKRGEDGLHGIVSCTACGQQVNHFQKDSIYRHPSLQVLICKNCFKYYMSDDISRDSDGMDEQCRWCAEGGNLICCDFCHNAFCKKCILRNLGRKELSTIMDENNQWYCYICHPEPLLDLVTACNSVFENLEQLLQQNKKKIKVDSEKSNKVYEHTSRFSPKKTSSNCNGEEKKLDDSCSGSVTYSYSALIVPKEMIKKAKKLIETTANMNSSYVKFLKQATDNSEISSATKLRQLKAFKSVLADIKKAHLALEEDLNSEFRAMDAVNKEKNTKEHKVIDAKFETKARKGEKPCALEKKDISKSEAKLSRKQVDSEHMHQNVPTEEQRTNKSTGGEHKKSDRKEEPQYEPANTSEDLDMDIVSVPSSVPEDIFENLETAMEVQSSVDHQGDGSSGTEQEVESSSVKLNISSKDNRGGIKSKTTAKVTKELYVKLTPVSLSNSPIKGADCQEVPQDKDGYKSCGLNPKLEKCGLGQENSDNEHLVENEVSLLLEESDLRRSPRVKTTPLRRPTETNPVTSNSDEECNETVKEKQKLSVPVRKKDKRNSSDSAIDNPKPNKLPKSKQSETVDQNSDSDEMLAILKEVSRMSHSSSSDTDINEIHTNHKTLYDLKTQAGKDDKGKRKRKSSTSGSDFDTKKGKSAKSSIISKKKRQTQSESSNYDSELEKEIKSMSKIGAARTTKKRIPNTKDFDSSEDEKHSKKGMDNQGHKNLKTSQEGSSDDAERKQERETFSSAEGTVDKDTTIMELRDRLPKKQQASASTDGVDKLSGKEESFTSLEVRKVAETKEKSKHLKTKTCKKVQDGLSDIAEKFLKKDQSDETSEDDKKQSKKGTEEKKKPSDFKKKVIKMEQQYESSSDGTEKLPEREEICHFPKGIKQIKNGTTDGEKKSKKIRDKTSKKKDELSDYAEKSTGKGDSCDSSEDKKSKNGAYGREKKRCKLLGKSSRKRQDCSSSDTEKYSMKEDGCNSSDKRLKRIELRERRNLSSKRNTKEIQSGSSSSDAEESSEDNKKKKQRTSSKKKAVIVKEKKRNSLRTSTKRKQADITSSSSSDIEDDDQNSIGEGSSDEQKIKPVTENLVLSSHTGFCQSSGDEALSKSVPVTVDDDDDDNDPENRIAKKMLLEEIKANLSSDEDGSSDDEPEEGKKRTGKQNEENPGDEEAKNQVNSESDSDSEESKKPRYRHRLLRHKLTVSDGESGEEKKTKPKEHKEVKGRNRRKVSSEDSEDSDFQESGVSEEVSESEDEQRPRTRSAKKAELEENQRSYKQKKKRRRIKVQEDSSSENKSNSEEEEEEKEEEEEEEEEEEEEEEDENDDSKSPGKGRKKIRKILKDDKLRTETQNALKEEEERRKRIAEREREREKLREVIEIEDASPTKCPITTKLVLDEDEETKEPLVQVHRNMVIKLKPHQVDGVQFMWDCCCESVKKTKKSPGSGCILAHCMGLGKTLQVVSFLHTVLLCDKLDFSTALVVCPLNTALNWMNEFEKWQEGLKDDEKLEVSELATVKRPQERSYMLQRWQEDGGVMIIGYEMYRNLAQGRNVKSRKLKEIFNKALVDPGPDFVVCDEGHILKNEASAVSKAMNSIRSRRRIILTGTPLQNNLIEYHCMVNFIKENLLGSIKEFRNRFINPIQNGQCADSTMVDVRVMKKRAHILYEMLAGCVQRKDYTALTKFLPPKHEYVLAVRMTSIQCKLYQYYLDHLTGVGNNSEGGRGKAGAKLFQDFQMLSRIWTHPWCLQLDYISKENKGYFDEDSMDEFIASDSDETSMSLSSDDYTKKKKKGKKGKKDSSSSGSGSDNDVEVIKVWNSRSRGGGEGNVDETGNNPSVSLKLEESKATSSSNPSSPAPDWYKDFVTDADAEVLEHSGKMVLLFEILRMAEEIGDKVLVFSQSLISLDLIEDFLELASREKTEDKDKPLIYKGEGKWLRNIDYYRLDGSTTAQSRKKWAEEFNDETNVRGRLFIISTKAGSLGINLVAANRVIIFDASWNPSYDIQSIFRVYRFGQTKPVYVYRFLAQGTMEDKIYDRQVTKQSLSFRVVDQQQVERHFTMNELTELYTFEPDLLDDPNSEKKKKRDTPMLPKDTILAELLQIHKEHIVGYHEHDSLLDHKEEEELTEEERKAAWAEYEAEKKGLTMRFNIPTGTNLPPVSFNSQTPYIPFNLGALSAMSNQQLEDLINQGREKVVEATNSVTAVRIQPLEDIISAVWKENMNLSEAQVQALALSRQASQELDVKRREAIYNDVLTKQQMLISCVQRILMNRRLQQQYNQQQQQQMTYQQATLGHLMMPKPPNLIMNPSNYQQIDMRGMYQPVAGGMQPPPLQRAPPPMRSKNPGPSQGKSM
UniProt Q13547: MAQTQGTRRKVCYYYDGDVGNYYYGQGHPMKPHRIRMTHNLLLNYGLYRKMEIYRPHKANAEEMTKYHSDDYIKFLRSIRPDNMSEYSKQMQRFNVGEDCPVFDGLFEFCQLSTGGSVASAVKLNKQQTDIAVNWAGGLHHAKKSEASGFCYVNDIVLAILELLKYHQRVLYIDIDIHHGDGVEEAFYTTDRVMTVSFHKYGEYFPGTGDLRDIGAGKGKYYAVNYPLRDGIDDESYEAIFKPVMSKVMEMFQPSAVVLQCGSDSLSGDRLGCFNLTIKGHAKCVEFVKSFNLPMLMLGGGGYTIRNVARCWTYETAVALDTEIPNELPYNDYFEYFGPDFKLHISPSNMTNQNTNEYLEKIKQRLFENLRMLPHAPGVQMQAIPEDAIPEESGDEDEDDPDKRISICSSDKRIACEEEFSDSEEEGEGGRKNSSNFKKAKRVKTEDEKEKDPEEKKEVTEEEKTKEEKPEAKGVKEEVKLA
UniProt O60934: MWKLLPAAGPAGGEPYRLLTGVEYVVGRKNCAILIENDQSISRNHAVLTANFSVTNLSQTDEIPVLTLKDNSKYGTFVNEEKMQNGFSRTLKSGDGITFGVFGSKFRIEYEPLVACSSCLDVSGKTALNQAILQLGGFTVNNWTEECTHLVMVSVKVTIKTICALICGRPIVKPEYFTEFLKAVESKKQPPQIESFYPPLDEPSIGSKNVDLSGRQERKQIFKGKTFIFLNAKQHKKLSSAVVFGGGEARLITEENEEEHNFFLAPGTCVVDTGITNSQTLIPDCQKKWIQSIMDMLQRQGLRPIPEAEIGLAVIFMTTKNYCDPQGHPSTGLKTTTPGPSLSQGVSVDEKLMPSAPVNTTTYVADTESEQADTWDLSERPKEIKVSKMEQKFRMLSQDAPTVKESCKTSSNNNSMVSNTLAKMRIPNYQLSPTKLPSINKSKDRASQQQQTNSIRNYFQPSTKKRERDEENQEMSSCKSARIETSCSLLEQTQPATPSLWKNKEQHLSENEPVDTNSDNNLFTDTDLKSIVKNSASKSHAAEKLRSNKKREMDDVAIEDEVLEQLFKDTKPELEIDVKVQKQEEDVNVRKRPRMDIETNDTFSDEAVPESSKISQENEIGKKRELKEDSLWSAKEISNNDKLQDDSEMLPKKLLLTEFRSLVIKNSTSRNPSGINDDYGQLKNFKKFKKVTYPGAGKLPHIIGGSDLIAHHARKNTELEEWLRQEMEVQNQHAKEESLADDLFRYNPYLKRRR

How the values were obtained:
[1] = target: T1, Recombinant FAM207A (in vitro translated, with biotinylated lysine) (UniProt Q9NSI2); assay: pull-down; in vitro translated FAM207A with biotinylated lysine held on Strep-Tactin (streptavidin) resin in BC150, 20 pmol recombinant ATRX added, 1 hr at room temperature, washes with BC150 + 0.1% NP40, BC300 + 0.1% NP40 and BC150; western blot; only the binder purified
T1 sequence (chain, biotinylated lysine (incorporated during translation)): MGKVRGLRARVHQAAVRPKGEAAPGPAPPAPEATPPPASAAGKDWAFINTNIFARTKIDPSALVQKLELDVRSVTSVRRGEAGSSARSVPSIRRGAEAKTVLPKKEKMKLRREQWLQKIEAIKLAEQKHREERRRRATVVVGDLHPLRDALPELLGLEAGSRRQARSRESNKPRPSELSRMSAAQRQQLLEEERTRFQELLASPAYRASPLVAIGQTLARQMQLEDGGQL

FLAG-CCDC71 (exogenous) = FLAG-CCDC71 (exogenous) (UniProt Q8IV32); assay: co-IP; anti-FLAG immunoprecipitation of exogenous CCDC71 from doxycycline-induced cells; lysate sonicated and MNase-digested; Protein G magnetic beads; western blot
[2] = target: ATRX (endogenous) (human (endogenous in MO3.13 and HEK293 Flp-In T-REx)) (UniProt P46100); assay: proximity ligation; PLA (Duolink) between endogenous ATRX and endogenous proteins in fixed MO3.13 human glial cells; any one protein probed alone as control
[3] = target: ATRX (endogenous) (human (endogenous in MO3.13 and HEK293 Flp-In T-REx)) (UniProt P46100); assay: proximity ligation; PLA (Duolink) between endogenous ATRX and tagged, exogenous proteins (FLAG-CCDC71 and FLAG-FAM207A in HEK293 Flp-In T-REx cells; myc-SLF2)

binding [1]: binds
Molecule: FLAG-ATRX (recombinant, SF9 insect cells) (from UniProt P46100 1-2492)

binding (FLAG-CCDC71 (exogenous)): binds
Molecule: HDAC1 histone deacetylase (from UniProt Q13547 1-482)

binding [2]: binds
Molecule: CCDC71 (endogenous) (from UniProt Q8IV32 1-467)

binding [2]: binds
Molecule: NBS1 component of the MRN complex (from UniProt O60934 1-754)

binding [2]: binds
Molecule: ZFHX4 transcription factor (from UniProt Q86UP3 1-3567)

binding [3]: binds
Molecule: FLAG-CCDC71 (exogenous) (from UniProt Q8IV32 1-467)

binding [2]: binds
B1: ZBTB4 (protein, UniProt Q9P1Z0 1-1013)
chain: MPPPAEVTDPSHAPAVLRQLNEQRLRGLFCDVTLIAGDTKFPAHRSVLAASSPFFREALLTSAPLPLPPATGGAAPNPATTTAASSSSSSSSSSSSSSSSASSSSSSSSSSPPPASPPASSPPRVLELPGVPAAAFSDVLNFIYSARLALPGGGGDGAAVAEIGALGRRLGISRLQGLGEGGDAWVPPTPAPMATSQPEEDSFGPGPRPAGEWEGDRAEAQAPDLQCSLPRRPLPCPQCGKSFIHPKRLQTHEAQCRRGASTRGSTGLGAGGAGPGGPAGVDASALPPPVGFRGGPEHVVKVVGGHVLYVCAACERSYVTLSSLKRHSNVHSWRRKYPCRYCEKVFALAEYRTKHEVWHTGERRYQCIFCWETFVTYYNLKTHQRAFHGISPGLLASEKTPNGGYKPKLNTLKLYRLLPMRAAKRPYKTYSQGAPEAPLSPTLNTPAPVAMPASPPPGPPPAPEPGPPPSVITFAHPAPSVIVHGGSSSGGGGSGTASTGGSQAASVITYTAPPRPPKKREYPPPPPEPAATPTSPATAVSPATAAGPAMATTTEEAKGRNPRAGRTLTYTAKPVGGIGGGGGPPTGAGRGPSQLQAPPPLCQITVRIGEEAIVKRRISETDLRPGELSGEEMEESEEDEEEEDEEEEEEDEEESKAGGEDQLWRPYYSYKPKRKAGAAGGASVGGSGLPRGRRPPRWRQKLERRSWEETPAAESPAGRARTERRHRCGDCAQTFTTLRKLRKHQEAHGGGSHSSRAGRRPSTRFTCPHCAKVCKTAAALSRHGQRHAAERPGGTPTPVIAYSKGSAGTRPGDVKEEAPQEMQVSSSSGEAGGGSTAAEEASETASLQDPIISGGEEPPVVASGGSYVYPPVQEFPLALIGGGREPGGGRGKSGSEGPVGAGEGDRMEGIGAAKVTFYPEPYPLVYGPQLLAAYPYNFSNLAALPVALNMVLPDEKGAGALPFLPGVFGYAVNPQAAPPAPPTPPPPTLPPPIPPKGEGERAGVERTQKGDVG

binding [2]: binds
B2: SLF2 (SMC5/6 localization factor 2), endogenous (protein, UniProt Q8IX21 1-1173)
chain: MTRRCMPARPGFPSSPAPGSSPPRCHLRPGSTAHAAAGKRTESPGDRKQSIIDFFKPASKQDRHMLDSPQKSNIKYGGSRLSITGTEQFERKLSSPKESKPKRVPPEKSPIIEAFMKGVKEHHEDHGIHESRRPCLSLASKYLAKGTNIYVPSSYHLPKEMKSLKKKHRSPERRKSLFIHENNEKNDRDRGKTNADSKKQTTVAEADIFNNSSRSLSSRSSLSRHHPEESPLGAKFQLSLASYCRERELKRLRKEQMEQRINSENSFSEASSLSLKSSIERKYKPRQEQRKQNDIIPGKNNLSNVENGHLSRKRSSSDSWEPTSAGSKQNKFPEKRKRNSVDSDLKSTRESMIPKARESFLEKRPDGPHQKEKFIKHIALKTPGDVLRLEDISKEPSDETDGSSAGLAPSNSGNSGHHSTRNSDQIQVAGTKETKMQKPHLPLSQEKSAIKKASNLQKNKTASSTTKEKETKLPLLSRVPSAGSSLVPLNAKNCALPVSKKDKERSSSKECSGHSTESTKHKEHKAKTNKADSNVSSGKISGGPLRSEYGTPTKSPPAALEVVPCIPSPAAPSDKAPSEGESSGNSNAGSSALKRKLRGDFDSDEESLGYNLDSDEEEETLKSLEEIMALNFNQTPAATGKPPALSKGLRSQSSDYTGHVHPGTYTNTLERLVKEMEDTQRLDELQKQLQEDIRQGRGIKSPIRIGEEDSTDDEDGLLEEHKEFLKKFSVTIDAIPDHHPGEEIFNFLNSGKIFNQYTLDLRDSGFIGQSAVEKLILKSGKTDQIFLTTQGFLTSAYHYVQCPVPVLKWLFRMMSVHTDCIVSVQILSTLMEITIRNDTFSDSPVWPWIPSLSDVAAVFFNMGIDFRSLFPLENLQPDFNEDYLVSETQTTSRGKESEDSSYKPIFSTLPETNILNVVKFLGLCTSIHPEGYQDREIMLLILMLFKMSLEKQLKQIPLVDFQSLLINLMKNIRDWNTKVPELCLGINELSSHPHNLLWLVQLVPNWTSRGRQLRQCLSLVIISKLLDEKHEDVPNASNLQVSVLHRYLVQMKPSDLLKKMVLKKKAEQPDGIIDDSLHLELEKQAYYLTYILLHLVGEVSCSHSFSSGQRKHFVLLCGALEKHVKCDIREDARLFYRTKVKDLVARIHGKWQEIIQNCRPTQGQLHDFWVPDS

binding [3]: binds
B3: myc-tagged SLF2 (exogenous) (protein, UniProt Q8IX21 1-1173)
chain: B2 chain

binding [2]: binds
B4: IMP3 U3 snoRNP protein (protein, UniProt Q9NV31 1-184)
chain: MVRKLKFHEQKLLKQVDFLNWEVTDHNLHELRVLRRYRLQRREDYTRYNQLSRAVRELARRLRDLPERDQFRVRASAALLDKLYALGLVPTRGSLELCDFVTASSFCRRRLPTVLLKLRMAQHLQAAVAFVEQGHVRVGPDVVTDPAFLVTRSMEDFVTWVDSSKIKRHVLEYNEERDDFDLEA

binding [3]: binds
B5: FLAG-FAM207A (exogenous) (protein, UniProt Q9NSI2 1-230)
chain: T1 sequence (chain, biotinylated lysine (incorporated during translation))
